Test results from the supplement of paper PMC8728848.
This is one part of the list.

Columns and labels:
Test in all cases: glycan array binding signal (z-score within array); higher = stronger binding
Conditions in all cases: glycan notation: IUPAC condensed, linker removed
Neu5Ac(a2-8)Neu5Ac = target: Neu5Ac(a2-8)Neu5Ac
Summary of the method: (§1)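 The binding signal is a Z-score computed within each array and averaged over linkers. Arrays of the same protein sequence at different concentrations or buffers were also averaged together. Data originate from 3228 arrays in the Consortium for Functional Glycomics database, kept only where the protein sequence was available.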

[1] = target: Neu5Ac(a2-8)Neu5Ac(a2-3)Gal(b1-3)GalNAc(b1-4)[Neu5Ac(a2-3)]Gal(b1-4)Glc
Summary of the method: as §1

[2] = target: Neu5Ac(a2-8)Neu5Ac(a2-3)Gal(b1-3)GalNAc(b1-4)[Neu5Ac(a2-8)Neu5Ac(a2-3)]Gal(b1-4)Glc
Summary of the method: as §1

[3] = target: Neu5Ac(a2-8)Neu5Ac(a2-3)Gal(b1-4)Glc
Summary of the method: as §1

[4] = target: Neu5Ac(a2-8)Neu5Ac(a2-3)Gal(b1-4)GlcNAc
Summary of the method: as §1

[5] = target: Neu5Ac(a2-8)Neu5Ac(a2-3)[Gal(b1-3)GalNAc(b1-4)]Gal(b1-4)Glc
Summary of the method: as §1

[6] = target: Neu5Ac(a2-8)Neu5Ac(a2-3)[GalNAc(b1-4)]Gal(b1-4)Glc
Summary of the method: as §1

[7] = target: Neu5Ac(a2-8)Neu5Ac(a2-8)Neu5Ac
Summary of the method: as §1

[8] = target: Neu5Ac(a2-8)Neu5Ac(a2-8)Neu5Ac(a2-3)Gal(b1-4)Glc
Summary of the method: as §1

[9] = target: Neu5Ac(a2-8)Neu5Ac(a2-8)Neu5Ac(a2-3)[Gal(b1-3)GalNAc(b1-4)]Gal(b1-4)Glc
Summary of the method: as §1

[10] = target: Neu5Ac(a2-8)Neu5Ac(a2-8)Neu5Ac(a2-3)[GalNAc(b1-4)]Gal(b1-4)Glc
Summary of the method: as §1

[11] = target: Neu5Ac(a2-8)Neu5Ac(a2-8)Neu5Ac(a2-8)Neu5Ac(a2-3)[GalNAc(b1-4)]Gal(b1-4)Glc
Summary of the method: as §1

[12] = target: Neu5Ac(a2-8)Neu5Gc(a2-3)Gal(b1-4)GlcNAc
Summary of the method: as §1

[13] = target: Neu5Ac(b2-6)Gal(b1-4)GlcNAc
Summary of the method: as §1

Neu5Ac(b2-6)GalNAc = target: Neu5Ac(b2-6)GalNAc
Summary of the method: as §1

[14] = target: Neu5Ac9Ac(a2-3)Gal(b1-3)GlcNAc
Summary of the method: as §1

[15] = target: Neu5Ac9Ac(a2-3)Gal(b1-4)GlcNAc
Summary of the method: as §1

[16] = target: Neu5Ac9Ac(a2-6)Gal(b1-4)GlcNAc
Summary of the method: as §1

[17] = target: Neu5Gc(a2-3)Gal(b1-3)GlcNAc
Summary of the method: as §1

[18] = target: Neu5Gc(a2-3)Gal(b1-3)[Fuc(a1-4)]GlcNAc
Summary of the method: as §1

Neu5Gc(a2-3)Gal(b1-4)Glc = target: Neu5Gc(a2-3)Gal(b1-4)Glc
Summary of the method: as §1

[19] = target: Neu5Gc(a2-3)Gal(b1-4)GlcNAc
Summary of the method: as §1

[20] = target: Neu5Gc(a2-3)Gal(b1-4)GlcNAc(b1-3)Gal(b1-4)GlcNAc(b1-2)Man(a1-3)[Neu5Gc(a2-3)Gal(b1-4)GlcNAc(b1-3)Gal(b1-4)GlcNAc(b1-2)Man(a1-6)]Man(b1-4)GlcNAc(b1-4)GlcNAc
Summary of the method: as §1

[21] = target: Neu5Gc(a2-3)Gal(b1-4)[Fuc(a1-3)]GlcNAc
Summary of the method: as §1

[22] = target: Neu5Gc(a2-6)Gal(b1-4)GlcNAc
Summary of the method: as §1

Neu5Gc(a2-6)GalNAc = target: Neu5Gc(a2-6)GalNAc
Summary of the method: as §1

[23] = target: Neu5Gc(a2-8)Neu5Ac(a2-3)Gal(b1-4)GlcNAc
Summary of the method: as §1

[24] = target: Neu5Gc(a2-8)Neu5Gc(a2-3)Gal(b1-4)GlcNAc
Summary of the method: as §1

[25] = target: Neu5Gc(a2-8)Neu5Gc(a2-3)Gal(b1-4)GlcNAc(b1-3)Gal(b1-4)GlcNAc
Summary of the method: as §1

[26] = target: Neu5Gc(a2-8)Neu5Gc(a2-6)Gal(b1-4)GlcNAc
Summary of the method: as §1

[27] = target: Neu5Gc(b2-6)Gal(b1-4)GlcNAc
Summary of the method: as §1

B1: B3GalT2 (Rattus norvegicus) (protein)
chain: LMLQWRRRHCCFAKMSWNAKRSLFRTHLMGVLSLVFLFAMFLFFNHHDWLPGRPGFKENPVTYTFRGFRSTKTETNQSSLRNIWKEVVPQTLRPQTATNSNNTELSPQGVTGLENTLSANGSIYNEKGTGHPNSYHFKYIINEPEKCQEKSPFLILLIAAEPGQIEARRAIRQTWGNETLAPGIQITRIFLLGISIKLNGYLQHAIQEESIQYHDIIQQEYLDTYYNLTIKTLMGMNWVATYCPHTPYVMKTDSDMFVNTEYLIHKLLKPDLPPRHNYFTGYLMRGYAPNRNKDSKWYMPPDLYPSERYPVFCSGTGYVFSGDLAEKIFKVSLGIRRLHLEDVYVGICLAKLRVDPVPPPNEFVFNHWRVSYSSCKYSHLITSHQFQPSELIKYWNHLQQNKHNACVNAAKEKAGRYRHRKLH
glycan array binding signal (z-score) (Neu5Ac(a2-8)Neu5Ac): 0.408 | glycan array binding signal (z-score) [1]: 0.781 | glycan array binding signal (z-score) [2]: -0.446 | glycan array binding signal (z-score) [3]: -0.919 | glycan array binding signal (z-score) [4]: 1.28 | glycan array binding signal (z-score) [5]: 0.167 | glycan array binding signal (z-score) [6]: 0.406 | glycan array binding signal (z-score) [7]: 1.37 | glycan array binding signal (z-score) [8]: 0.472 | glycan array binding signal (z-score) [9]: 0.932 | glycan array binding signal (z-score) [10]: -0.726 | glycan array binding signal (z-score) [11]: 0.208 | glycan array binding signal (z-score) [12]: 0.021 | glycan array binding signal (z-score) [13]: -0.66 | glycan array binding signal (z-score) (Neu5Ac(b2-6)GalNAc): 0.607 | glycan array binding signal (z-score) [14]: 0.245 | glycan array binding signal (z-score) [15]: 0.724 | glycan array binding signal (z-score) [16]: 1.57 | glycan array binding signal (z-score) [17]: 0.899 | glycan array binding signal (z-score) [18]: 0.464 | glycan array binding signal (z-score) (Neu5Gc(a2-3)Gal(b1-4)Glc): -0.536 | glycan array binding signal (z-score) [19]: -0.077 | glycan array binding signal (z-score) [20]: -0.845 | glycan array binding signal (z-score) [21]: -0.164 | glycan array binding signal (z-score) [22]: -0.599 | glycan array binding signal (z-score) (Neu5Gc(a2-6)GalNAc): -0.326 | glycan array binding signal (z-score) [23]: -0.333 | glycan array binding signal (z-score) [24]: -0.457 | glycan array binding signal (z-score) [25]: 0.701 | glycan array binding signal (z-score) [26]: 0.689 | glycan array binding signal (z-score) [27]: 0.124
